The record followed here is article PMC6597547.

These are yes or no findings as the source states them, for the method shown. In cells and extracts the contact can be indirect. A result given as binding can be weak or reduced; the word gives no strength. Where a sequence is shown, tags or fusion partners need not be part of it.

This test concerns the target T1, EXECUTER1 (EX1) fused to GFP (Arabidopsis thaliana) (UniProt Q93YW0).
T1 sequence: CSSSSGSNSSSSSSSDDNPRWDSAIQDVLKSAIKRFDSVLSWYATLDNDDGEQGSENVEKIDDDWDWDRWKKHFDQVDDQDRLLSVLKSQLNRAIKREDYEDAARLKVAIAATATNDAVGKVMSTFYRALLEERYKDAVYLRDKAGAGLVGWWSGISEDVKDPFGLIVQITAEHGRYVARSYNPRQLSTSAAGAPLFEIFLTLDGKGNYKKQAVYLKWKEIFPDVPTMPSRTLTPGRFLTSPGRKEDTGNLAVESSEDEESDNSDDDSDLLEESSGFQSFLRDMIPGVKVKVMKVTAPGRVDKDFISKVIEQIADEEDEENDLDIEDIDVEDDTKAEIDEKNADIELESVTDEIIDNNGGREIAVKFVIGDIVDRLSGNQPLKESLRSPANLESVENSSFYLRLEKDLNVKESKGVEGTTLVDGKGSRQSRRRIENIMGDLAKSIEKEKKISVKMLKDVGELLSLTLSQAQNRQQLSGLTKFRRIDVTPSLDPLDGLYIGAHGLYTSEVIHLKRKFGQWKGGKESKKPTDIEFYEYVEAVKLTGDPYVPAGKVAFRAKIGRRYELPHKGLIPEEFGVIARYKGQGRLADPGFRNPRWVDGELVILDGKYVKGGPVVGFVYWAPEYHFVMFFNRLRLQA
The test can be described thus: co-IP; EX1-GFP precipitated with GFP-Trap magnetic agarose beads from total protein of 5-day-old dark-grown (etioplasts) or continuous-light-grown (chloroplasts) seedlings; CoIP buffer 20 mM HEPES-KOH pH 7.4, 100 mM NaCl, 0.5% Triton X-100; room temperature 1.5-2 h; western blot with the indicated antibodies. In general terms: A western blot detects proteins with antibodies after separation by electrophoresis.

As for “light-dependent NADPH:protochlorophyllide oxidoreductase (POR) (enzyme)”, the binding entry is “binds”.
